Test results from PubChem BioAssay AID2685 (National Center for Advancing Translational Sciences (NCATS), 2010).
Some of the results follow. These are further read-outs of the screen, such as a control signal, another cell line or another target. No call is given for them. The list favours compounds with an active or inconclusive main result. Words in brackets tell the shape of the fitted curve; partial curves, single points and poor fits give uncertain potencies.

Experiment: qHTS Assay for Lipid Storage Modulators in Drosophila S3 Cells;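 as to cell number change: cells counted by Cell Tracker Red CMTPX staining in the red channel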
Conditions: BODIPY lipid droplet fluorescence, 18-24 h; for cell number change: measured here: cell count max response, cells fed with added oleic acid
Procedure, shortened: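 Drosophila S3 cells got compounds at several concentrations plus oleic acid (400 uM solution). Laser-scanning cytometry with 488 nm excitation read lipid droplets at 500-530 nm and cells at 575-640 nm. Percent activity was relative to 20 uM Triacsin C.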

[1] = measured here: cell number channel AC50, cells fed with added oleic acid
[2] = measured here: lipid fluorescence (Fed channel) AC50, cells fed with added oleic acid

| Structure (SMILES) | AC50 [1] | AC50 [2] | cell number change |
| --- | --- | --- | --- |
| Cc1cccn2cc(CCNS(=O)(=O)c3ccc4c(c3)OCCO4)nc12 | 3.66 µM [rising, partial curve, poor fit] | 3.66 µM [rising, partial curve] |  |
| C=CCc1ccc(OCCn2nnc3ccccc32)c(OC)c1 |  |  | -30% |
| Cc1onc(-c2ccccc2Cl)c1C(=O)NC(=S)Nc1ccccc1C(N)=O | 23.1 µM [rising, single point] | 23.1 µM [rising, single point] | 39.3% |
| O=S(c1ccc2ccccc2c1)c1cnns1 (stereo not given) |  | 29.1 µM [falling, single point] | -21.1% |
| Cc1ccc(CC2CC(=O)N(c3cc(C)ccc3C)C2=O)cc1 (stereo not given) |  | 29.1 µM [falling, single point] | 2.75% |
| Cc1ccc(-c2[nH]c3ccccc3c2SCCNC(=O)c2cc3ccccc3oc2=O)cc1 |  | 1.3 µM [rising, full curve, poor fit] | -0.624% |
| CCOC(=O)c1cnc(SCC(=O)Nc2cccc(OC)c2)nc1N |  |  | 5.19% |
| CC(=O)Nc1ccc(S(=O)(=O)NC2(C(F)(F)F)C(=O)Nc3c2c(=O)n(C)c(=O)n3C)cc1 (stereo not given) |  | 29.1 µM [falling, single point] | 8.81% |
| COc1ccc(OCCN(C)CC(=O)Nc2ccccc2SC)cc1 |  |  | 15.3% |
| O=C(CSc1nc(NS(=O)(=O)c2ccccc2)cc(=O)[nH]1)Nc1cccc(C(F)(F)F)c1 | 32.6 µM [rising, single point] |  | 67.3% |
| Cc1nn(CC2CC2)c(=O)n1-c1ccccc1 |  | 20.6 µM [falling, single point] | -22.4% |
| O=C(N/N=C/c1ccc(Cl)cc1Cl)C(=O)NC1CC1 |  |  | 16.1% |
| Nc1ccc2oc(-c3cccc(Br)c3)nc2c1 |  | 0.164 µM [rising, full curve, poor fit] | 23.9% |
| COc1ccc(/C=N/NC(=O)c2cc(C)n(-c3ccccc3)c2C)cc1OC |  |  | -1.63% |
| CN(C)c1nc(=NCc2ccco2)ss1 | 9.2 µM [falling, partial curve] | 8.2 µM [falling, partial curve] | -31.5% |
| CC1(C)C(=O)Nc2ccccc2N1C(=O)COC(=O)c1cccnc1 |  | 6.51 µM [rising, single point] | 7.29% |
| CCc1cccc(NC(=O)CS(=O)Cc2nc(-c3ccc(C)cc3)oc2C)c1 (stereo not given) |  | 0.13 µM [rising, single point] |  |
| Cc1cccc(NC(=O)c2cc(-c3ccc(C)c(C)c3O)n[nH]2)c1 | 29.1 µM [rising, single point] | 0.13 µM [rising, full curve] | 55.3% |
| CCCCOc1ccc(NC(=O)CN2CCN(CC)CC2)cc1 | 0.651 µM [falling, full curve, poor fit] | 29.1 µM [rising, single point] | -26.6% |
| O=S(=O)(Nc1ccc(-c2nc3cccnc3s2)cc1)c1ccc(Cl)s1 | 3.66 µM [rising, full curve] | 3.66 µM [rising, full curve] | 40.1% |

| Structure (SMILES) | AC50 [1] | AC50 [2] | cell number change |
| --- | --- | --- | --- |
| O=C(/C=C1\SC(=O)NC1=O)Nc1ccc(C(=O)O)cc1 |  | 29.1 µM [falling, single point] | 27.6% |
| COc1cc(Nc2nc3ccccc3nc2NS(=O)(=O)c2ccc([N+](=O)[O-])cc2)cc(OC)c1OC |  | 0.326 µM [rising, partial curve, poor fit] | -9.54% |
| CC(=O)Nc1cc2nc(C)n(Cc3ccccc3)c2nc1C |  | 0.146 µM [rising, full curve, poor fit] | -1.02% |
| O=C(c1ccco1)N1CCN(C(=O)c2cc(-c3ccc(F)cc3)no2)CC1 |  | 18.4 µM [falling, single point] | -9.44% |
| Cc1nn(Cc2ccccc2)c(Cl)c1/C=C1\NC(=S)NC1=O | 1.16 µM [falling, single point] |  | -11.3% |
| CCC(=O)Nc1cccc(NC(=S)NC(=O)c2ccccc2C)c1 | 6.51 µM [rising, single point] | 6.51 µM [rising, single point] |  |
| COc1ccc(N2CCn3c2nc2c3c(=O)n(CCCc3ccccc3)c(=O)n2C)cc1 |  | 0.206 µM [rising, full curve, poor fit] | 5.89% |
| Cc1ncsc1CCC(=O)N1CCCC(C(=O)c2ccc3c(c2)OCO3)C1 (stereo not given) |  | 29.1 µM [falling, single point] | 3.88% |
| O=C1Nc2ccccc2C1Cc1ccccc1 (stereo not given) |  | 1.84 µM [rising, partial curve] |  |
| O=C(c1ccccc1)c1cn[nH]c1-c1ccccc1O |  | 2.91 µM [falling, single point] | -3.16% |
| Cn1c(SCC(=O)NC2CCCC2)nnc1-c1ccc(S(=O)(=O)N2CCOCC2)cc1 | 18.4 µM [falling, partial curve] | 20.6 µM [falling, partial curve] | -85.3% |
| COc1ccccc1NC(=O)CC1S/C(=N/N=C2\CCCc3ccccc32)NC1=O (stereo not given) | 16.4 µM [falling, partial curve, poor fit] |  | -49.3% |
| O=C(c1nn2c(C(F)(F)F)cc(-c3cccs3)nc2c1Cl)N1CCCc2ccccc21 |  | 0.13 µM [rising, full curve, poor fit] | 5.47% |
| CCOC(=O)c1cc(CN2CCOCC2)oc1-c1ccccc1 |  |  | -29.4% |
| O=C(CSc1ccc2nnc(-c3cccc(F)c3)n2n1)NCC1CCCO1 (stereo not given) | 1.46 µM [rising, full curve, poor fit] | 1.46 µM [rising, partial curve] | 29% |
| Nc1no[n+]([O-])c1-c1ccccc1 |  |  | -15.2% |
| CCn1c(C)nc2cc(C(=O)N/N=C/c3ccccc3C)ccc21 |  |  | -26.1% |
| CN(C)CCNC(=O)c1cc2c(s1)-c1ccccc1OC2 | 29.1 µM [rising, single point] | 29.1 µM [rising, single point] | 62.4% |
| COc1ccc(-n2nc(C(=O)NCC(=O)N3CCCC3)c3ccccc3c2=O)cc1 |  |  | 16.7% |

Only AC50 [1] and cell number change, for 2 of the compounds above:
Structure (SMILES)	AC50 [1]	cell number change
Nc1no[n+]([O-])c1-c1ccccc1		-15.2%
CN(C)CCNC(=O)c1cc2c(s1)-c1ccccc1OC2	29.1 µM [rising, single point]	62.4%
